Assay in all cases: GFP-trap pull-down, fluorescent DNA in direct competition
One series has as its target GFP-Tet1 (mouse) (UniProt Q3URK3). The conditions noted are these: protein in a lysate after overexpression, protein details: N-terminal GFP.
The target in another series is GFP-Tet3CXXCL (mouse) (UniProt Q8BG87). Conditions: protein in a lysate after overexpression, residues 1-1803, protein details: N-terminal GFP.
The target in the next series is GFP-CXXCDnmt1 (UniProt P13864). Conditions: lower activity than Cxxc4, Cxxc5 and Tet constructs; protein in a lysate after overexpression; protein details: N-terminal GFP.
For another series, the target named is T1, Cxxc4-GFP (UniProt Q6NXI8).
T1 sequence (looked up, limits assumed): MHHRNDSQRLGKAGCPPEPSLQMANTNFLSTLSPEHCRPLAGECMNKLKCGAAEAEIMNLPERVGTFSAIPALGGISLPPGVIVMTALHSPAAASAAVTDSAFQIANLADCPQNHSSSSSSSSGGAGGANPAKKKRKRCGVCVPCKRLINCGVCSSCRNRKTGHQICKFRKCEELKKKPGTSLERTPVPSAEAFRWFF
The conditions noted are these: protein in a lysate after overexpression, protein details: C-terminal GFP.

Sequences of proteins named here, by UniProt entry; tags and fusion partners are left off. A change or cut given only in a name is not applied to a line headed by its entry.
UniProt P13864: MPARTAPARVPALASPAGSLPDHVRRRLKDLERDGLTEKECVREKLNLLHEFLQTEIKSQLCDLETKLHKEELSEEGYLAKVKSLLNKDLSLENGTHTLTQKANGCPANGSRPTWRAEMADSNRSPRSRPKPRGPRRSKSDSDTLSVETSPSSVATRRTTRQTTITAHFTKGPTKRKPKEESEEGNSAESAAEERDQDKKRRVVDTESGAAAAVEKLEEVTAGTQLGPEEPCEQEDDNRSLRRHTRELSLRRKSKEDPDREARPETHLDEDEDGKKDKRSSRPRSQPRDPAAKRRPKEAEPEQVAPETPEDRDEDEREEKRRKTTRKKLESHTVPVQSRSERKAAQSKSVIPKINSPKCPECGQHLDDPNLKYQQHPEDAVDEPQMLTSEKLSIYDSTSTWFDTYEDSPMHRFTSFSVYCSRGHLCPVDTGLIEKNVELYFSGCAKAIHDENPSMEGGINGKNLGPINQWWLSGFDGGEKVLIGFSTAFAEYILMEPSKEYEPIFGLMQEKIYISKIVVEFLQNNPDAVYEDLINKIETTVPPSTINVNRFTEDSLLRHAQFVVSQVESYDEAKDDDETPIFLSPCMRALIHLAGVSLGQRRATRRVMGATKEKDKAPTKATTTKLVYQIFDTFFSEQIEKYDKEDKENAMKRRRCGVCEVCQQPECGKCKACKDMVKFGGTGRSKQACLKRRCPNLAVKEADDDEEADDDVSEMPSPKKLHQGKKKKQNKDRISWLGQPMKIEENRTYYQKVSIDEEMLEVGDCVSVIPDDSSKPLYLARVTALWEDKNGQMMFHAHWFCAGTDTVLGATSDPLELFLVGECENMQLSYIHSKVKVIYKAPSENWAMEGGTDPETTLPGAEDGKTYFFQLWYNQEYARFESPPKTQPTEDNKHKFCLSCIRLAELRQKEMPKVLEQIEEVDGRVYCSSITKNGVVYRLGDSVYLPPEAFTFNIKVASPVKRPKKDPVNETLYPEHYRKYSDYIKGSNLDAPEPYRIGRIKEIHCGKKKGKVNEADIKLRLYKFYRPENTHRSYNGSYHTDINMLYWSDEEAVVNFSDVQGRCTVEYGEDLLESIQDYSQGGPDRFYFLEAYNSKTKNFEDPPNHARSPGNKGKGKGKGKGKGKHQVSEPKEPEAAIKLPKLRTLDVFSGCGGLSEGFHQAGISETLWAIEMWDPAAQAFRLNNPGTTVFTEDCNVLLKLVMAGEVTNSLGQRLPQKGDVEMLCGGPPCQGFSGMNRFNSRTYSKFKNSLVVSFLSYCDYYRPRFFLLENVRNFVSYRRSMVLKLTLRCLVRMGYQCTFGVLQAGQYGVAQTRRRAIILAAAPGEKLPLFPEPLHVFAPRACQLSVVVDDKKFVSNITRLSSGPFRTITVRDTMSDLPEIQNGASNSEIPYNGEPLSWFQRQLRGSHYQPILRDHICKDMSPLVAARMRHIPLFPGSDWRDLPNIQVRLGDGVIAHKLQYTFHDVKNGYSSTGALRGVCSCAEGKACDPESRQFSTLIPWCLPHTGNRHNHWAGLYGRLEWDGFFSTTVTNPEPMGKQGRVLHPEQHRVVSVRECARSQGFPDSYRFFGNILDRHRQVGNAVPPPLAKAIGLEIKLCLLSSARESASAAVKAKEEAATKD

Another series addresses T2, Cxxc5-GFP (UniProt Q91WA4).
T2 sequence (looked up, limits assumed): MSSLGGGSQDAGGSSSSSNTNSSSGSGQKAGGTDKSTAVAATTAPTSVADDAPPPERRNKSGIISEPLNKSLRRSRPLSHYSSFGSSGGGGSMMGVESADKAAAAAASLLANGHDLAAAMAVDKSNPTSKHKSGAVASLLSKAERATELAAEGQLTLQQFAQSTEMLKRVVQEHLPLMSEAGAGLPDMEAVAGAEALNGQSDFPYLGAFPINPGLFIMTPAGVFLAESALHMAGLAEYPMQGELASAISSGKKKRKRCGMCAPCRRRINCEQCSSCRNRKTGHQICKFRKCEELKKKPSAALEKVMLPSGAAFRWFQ
Conditions: protein in a lysate after overexpression, protein details: C-terminal GFP.

The next series has as its target T3, GFP-Tet1 512-671 (mouse) (UniProt Q3URK3).
T3 sequence (looked up): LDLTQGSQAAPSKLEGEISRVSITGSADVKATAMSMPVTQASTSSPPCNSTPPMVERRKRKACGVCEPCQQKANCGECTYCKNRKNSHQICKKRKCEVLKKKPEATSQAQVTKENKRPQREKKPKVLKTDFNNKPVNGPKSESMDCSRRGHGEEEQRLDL
The conditions noted are these: CG = mCG > hmCG, protein in a lysate after overexpression, residues 512-671, protein details: N-terminal GFP.

For the next series, the system named is GFP-Tet3 (mouse). Conditions: protein in a lysate after overexpression, protein details: N-terminal GFP.
In the next series the target is T4, CXXCTet3-GFP (mouse) (UniProt Q8BG87).
T4 sequence (looked up, limits assumed): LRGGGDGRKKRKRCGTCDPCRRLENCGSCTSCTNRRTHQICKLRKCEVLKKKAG
The conditions noted are these: protein in a lysate after overexpression, protein details: C-terminal GFP.

The target of the next series is T5, CXXCTet1-GFP (mouse) (UniProt Q3URK3).
T5 sequence (looked up): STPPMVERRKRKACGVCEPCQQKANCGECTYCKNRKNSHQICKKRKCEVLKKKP
The conditions noted are these: protein in a lysate after overexpression, residues 561-614, protein details: C-terminal GFP.

Another series addresses T6, GFP-CXXCTet1 (mouse) (UniProt Q3URK3).
T6 sequence (looked up): T5 sequence (looked up)
Conditions: much lower than CXXCTet1-GFP, protein in a lysate after overexpression, residues 561-614, protein details: N-terminal GFP.

The mark [1] stands for this setting: CG > mCG > hmCG, 5-hydroxymethylcytosine at position 21 of both strands, label: 5' ATTO dye on strand 2 (hmC550: ATTO550).
Setting [2] is: relative increase for mCG versus CXXCTet3-GFP, 5-methylcytosine at position 21 of both strands, label: 5' ATTO dye on strand 2 (mC700: ATTO700).
The mark [3] stands for this setting: CG > mCG > hmCG, 5-methylcytosine at position 21 of both strands, label: 5' ATTO dye on strand 2 (mC700: ATTO700).
The mark [4] stands for this setting: 5-methylcytosine at position 21 of both strands, label: 5' ATTO dye on strand 2 (mC700: ATTO700).
[5] abbreviates: versus CG, label: 5' ATTO647N on strand 2.

This is an account of results in paper PMC3653909.

For at least one entry, the source does not settle the construct or the ends of the probe. Where cells or extracts were used, other partners may take part. The comparison behind a weaker result is the experiment's own reference, which may not be listed here. For some assays here: At least one verdict was read from the data and is not stated in words by the source. For some assays here: Where a protein sequence is shown, tags need not be part of it.

Take “CTCAACAACTAACTACCATCCGGACCAGAAGAGTCATCATGG (double strand)”: the binding result with GFP-Tet1 (mouse) (8-fold higher activity than CXXCTet1-GFP, 4-fold molar excess of DNA) was “binds”; with GFP-Tet3CXXCL (mouse) (4-fold molar excess of DNA) it was “binds”; with GFP-CXXCDnmt1, “binds more weakly”; with Cxxc4-GFP (CG > mCG > hmCG), “binds”; with Cxxc5-GFP (CG > mCG > hmCG), “binds”; with GFP-Tet1 512-671 (mouse) it was “binds”. The binding result is “binds” in the series on GFP-Tet3 (mouse) (4-fold molar excess of DNA), “binds” with CXXCTet3-GFP (mouse) (CG > mCG > hmCG), “binds” with CXXCTet1-GFP (mouse) (CG = mCG > hmCG) and “binds more weakly” with GFP-CXXCTet1 (mouse).

Regarding “CTCAACAACTAACTACCATCCGGACCAGAAGAGTCATCATGG (double strand) [hmCG]”, the binding result is listed as “binds more weakly” in the series with GFP-Tet1 (mouse) (same preference as CXXCTet1-GFP, 4-fold molar excess of DNA, 5-hydroxymethylcytosine at position 21 of both strands, label: 5' ATTO dye on strand 2 (hmC550: ATTO550)); “binds more weakly” with Cxxc4-GFP (setting [1]); “binds more weakly” in the series with Cxxc5-GFP (setting [1]); “binds more weakly” in the series with GFP-Tet1 512-671 (mouse) (5-hydroxymethylcytosine at position 21 of both strands, label: 5' ATTO dye on strand 2 (hmC550: ATTO550)); “binds more weakly” in the series with CXXCTet3-GFP (mouse) (setting [1]); “binds more weakly” with CXXCTet1-GFP (mouse) (CG = mCG > hmCG, 5-hydroxymethylcytosine at position 21 of both strands, label: 5' ATTO dye on strand 2 (hmC550: ATTO550)).

Take “CTCAACAACTAACTACCATCCGGACCAGAAGAGTCATCATGG (double strand) [mCG]”: the binding result with GFP-Tet1 (mouse) (same preference as CXXCTet1-GFP, 4-fold molar excess of DNA, 5-methylcytosine at position 21 of both strands, label: 5' ATTO dye on strand 2 (mC700: ATTO700)) is given as “binds”; with GFP-Tet3CXXCL (mouse) (setting [2]), “binds”; with Cxxc4-GFP (setting [3]) it was “binds more weakly”; in the series with Cxxc5-GFP (setting [3]) it was “binds more weakly”; in the series with GFP-Tet1 512-671 (mouse) (setting [4]) it was “binds”; in the series on GFP-Tet3 (mouse) (setting [2]) it was “binds”. The binding result with CXXCTet3-GFP (mouse) (setting [3]) is “binds more weakly”; with CXXCTet1-GFP (mouse) (CG = mCG > hmCG, 5-methylcytosine at position 21 of both strands, label: 5' ATTO dye on strand 2 (mC700: ATTO700)), “binds”; with GFP-CXXCTet1 (mouse) (setting [4]), “binds more weakly”.

As for “CTCAACAACTAACTACCATCTGGACCAGAAGAGTCATCATGG / CCATGATGACTCTTCTGGTCTGGATGGTAGTTAGTTGTTGAG [noCG]”, the binding result in the series with GFP-Tet1 (mouse) (setting [5]), in the series with GFP-Tet3CXXCL (mouse) (setting [5]), in the series with Cxxc4-GFP (setting [5]), with Cxxc5-GFP (setting [5]), in the series with GFP-Tet3 (mouse) (setting [5]) and in the series with CXXCTet3-GFP (mouse) (setting [5]) was “binds more weakly” in each case. Further, the binding result with CXXCTet1-GFP (mouse) (setting [5]) is listed as “binds more weakly”.
